No constants are given. Whether binding was seen depends on the method and setting. For part of these data: Binding seen in cells or lysates may run through a third protein. Some binding calls cover weakened binding; strength is not graded here.
Tests used:
[1] = biological target: NH2-terminal fragment of NPM, in vitro translated and 35S-methionine-labelled (human) (UniProt P06748); assay: Affinity purification of 35S-labelled in vitro translated peptides on protein H-Sepharose
[2] = biological target: nucleophosmin in nuclear extracts of Jurkat cells incubated with protein H (human) (UniProt P06748); assay: Co-immunoprecipitation from nuclear extracts with anti-protein H F(ab')2-Sepharose, then Western blot with anti-NPM
[3] = biological target: SET protein (39 kDa and 80 kDa bands of Jurkat nuclear extract) (human) (UniProt Q01105); assay: Summary of the Example
[4] = biological target: heterogeneous nuclear ribonuclear protein (hnRNP) A2/B1 (42 kDa band of Jurkat nuclear extract) (human) (UniProt P22626); assay: Summary of the Example
[5] = biological target: heterogeneous nuclear ribonuclear protein (hnRNP) A2/B1 (42 kDa band of Jurkat nuclear extract) (human) (UniProt P22626); assay: Jurkat nuclear extract eluted from protein H-Sepharose and blotted with 125I-protein H; the 42 kDa band was identified as hnRNP A2/B1
[6] = biological target: SET protein (39 kDa and 80 kDa bands of Jurkat nuclear extract) (human) (UniProt Q01105); assay: Jurkat nuclear extract eluted from protein H-Sepharose and blotted with 125I-protein H; the 39 and 80 kDa bands were identified as SET

Sequences of proteins named here, by UniProt entry; tags and fusion partners are left off. A change or cut given only in a name is not applied to a line headed by its entry. A line that says so, or that is headed by a name, gives the form on record, which may keep a tag or linker. Residues count along the entry.
UniProt P06748: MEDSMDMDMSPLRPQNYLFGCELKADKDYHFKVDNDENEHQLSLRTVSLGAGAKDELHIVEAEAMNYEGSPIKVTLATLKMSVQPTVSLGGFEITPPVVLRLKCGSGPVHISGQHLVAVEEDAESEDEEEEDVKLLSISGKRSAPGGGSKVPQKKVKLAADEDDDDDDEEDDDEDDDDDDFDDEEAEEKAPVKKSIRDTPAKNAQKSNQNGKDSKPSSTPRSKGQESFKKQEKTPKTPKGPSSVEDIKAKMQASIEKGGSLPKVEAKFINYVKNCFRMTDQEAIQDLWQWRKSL
NH2-terminal fragment of NPM, in vitro translated and 35S-methionine-labelled: residues 1-147 of P06748
SET protein (39 kDa and 80 kDa bands of Jurkat nuclear extract) (Q01105, form named): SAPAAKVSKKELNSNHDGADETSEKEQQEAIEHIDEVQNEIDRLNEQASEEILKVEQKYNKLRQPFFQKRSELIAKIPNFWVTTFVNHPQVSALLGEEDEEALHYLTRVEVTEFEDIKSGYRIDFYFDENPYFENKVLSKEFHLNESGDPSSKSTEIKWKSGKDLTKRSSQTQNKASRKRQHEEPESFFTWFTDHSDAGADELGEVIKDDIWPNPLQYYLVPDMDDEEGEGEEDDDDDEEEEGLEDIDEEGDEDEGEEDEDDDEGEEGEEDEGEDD
UniProt P22626: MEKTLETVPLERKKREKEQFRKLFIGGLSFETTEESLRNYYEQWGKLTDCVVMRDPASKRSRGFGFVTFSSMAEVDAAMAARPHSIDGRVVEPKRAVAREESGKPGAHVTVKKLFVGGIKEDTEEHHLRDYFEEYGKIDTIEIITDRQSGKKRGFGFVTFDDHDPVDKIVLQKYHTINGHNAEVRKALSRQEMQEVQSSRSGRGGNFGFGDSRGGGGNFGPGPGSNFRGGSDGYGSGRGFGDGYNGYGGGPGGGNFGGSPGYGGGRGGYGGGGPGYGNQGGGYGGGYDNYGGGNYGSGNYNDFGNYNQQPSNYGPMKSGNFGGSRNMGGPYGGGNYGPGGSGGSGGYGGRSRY
UniProt P50470: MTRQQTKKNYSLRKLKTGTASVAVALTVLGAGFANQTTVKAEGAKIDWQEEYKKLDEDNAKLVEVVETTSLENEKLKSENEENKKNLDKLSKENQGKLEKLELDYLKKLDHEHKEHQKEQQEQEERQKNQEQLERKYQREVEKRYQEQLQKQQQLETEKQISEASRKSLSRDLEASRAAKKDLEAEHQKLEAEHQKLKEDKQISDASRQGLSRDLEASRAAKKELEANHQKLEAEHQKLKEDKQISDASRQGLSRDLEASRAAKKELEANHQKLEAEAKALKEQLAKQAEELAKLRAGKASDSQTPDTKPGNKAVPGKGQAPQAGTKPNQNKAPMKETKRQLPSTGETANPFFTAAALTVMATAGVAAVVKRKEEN

Measured: binding

protein H of Streptococcus pyogenes, COOH-terminally truncated fragment expressed by and purified from E. coli (305 amino acids) (from UniProt P50470 42-346)
binds: all assays above

Reference: patent US6833355
